PubChem BioAssay AID1224830 | NIAID – 2016

- Test: 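Regulators of TLR4 signalling towards TNF-alpha in macrophage-like cells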 (primary screen)
- System: human THP-1 monocytic leukaemia cells, TNF dual-luciferase reporter clone, PMA-differentiated to macrophage-like cells
- Reagents: siRNA pool against human genes, 50 nM
- Time to read-out: LPS for 4 h, given about 3 days after siRNA transfection
- Treatment: bacterial LPS (TLR4 ligand), 10 ng/ml
- Measurement: 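Ratio of firefly to renilla light, scaled to the plate median and expressed as a robust z-score per replicate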
- Reading the numbers: TNF reporter robust z-score: higher = stronger TNF reporter response to LPS
- Hit rule: 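Each well counts as active if its z-score is over 2.8 or under -1.5; controls are left without a call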
The whole screen tested about 18,000 reagents; below is an unselected part. About 2,900 of all reagents (16%) were called active. 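Calls are made per well; low scores hint the gene aids the LPS response, high scores that it dampens it.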 Repeated entries: four replicate wells of each siRNA pool. No sequences are given here.

TRPM4 [SID315457163]: TNF reporter robust z-score = 0.38; outcome = inactive
TRPM4 [SID315457163]: TNF reporter robust z-score = 0.34; outcome = inactive
TRPM4 [SID315457163]: TNF reporter robust z-score = 0.46; outcome = inactive
TRPM4 [SID315457163]: TNF reporter robust z-score = 0.74; outcome = inactive
PRAMEF9 [SID315464148]: TNF reporter robust z-score = -0.24; outcome = inactive
PRAMEF9 [SID315464148]: TNF reporter robust z-score = 0.85; outcome = inactive
PRAMEF9 [SID315464148]: TNF reporter robust z-score = 0.3; outcome = inactive
PRAMEF9 [SID315464148]: TNF reporter robust z-score = -0.36; outcome = inactive
TLN2 [SID315460051]: TNF reporter robust z-score = -1.3; outcome = inactive
TLN2 [SID315460051]: TNF reporter robust z-score = -1.26; outcome = inactive
TLN2 [SID315460051]: TNF reporter robust z-score = -1.31; outcome = inactive
DPP9 [SID315460879]: TNF reporter robust z-score = 3.14; outcome = active
DPP9 [SID315460879]: TNF reporter robust z-score = 0.94; outcome = inactive
DPP9 [SID315460879]: TNF reporter robust z-score = -0.36; outcome = inactive
DPP9 [SID315460879]: TNF reporter robust z-score = 1.07; outcome = inactive

More reagents follow:
C15orf40 [SID315461575]: TNF reporter robust z-score = -0.2; outcome = inactive
C15orf40 [SID315461575]: TNF reporter robust z-score = 0.85; outcome = inactive
C15orf40 [SID315461575]: TNF reporter robust z-score = 0.5; outcome = inactive
C15orf40 [SID315461575]: TNF reporter robust z-score = 0.49; outcome = inactive
MOG [SID315450021]: TNF reporter robust z-score = -1.06; outcome = inactive
MOG [SID315450021]: TNF reporter robust z-score = -0.99; outcome = inactive
MOG [SID315450021]: TNF reporter robust z-score = -1.18; outcome = inactive
MOG [SID315450021]: TNF reporter robust z-score = -0.88; outcome = inactive
NCKAP1 [SID315454362]: TNF reporter robust z-score = 2.53; outcome = inactive
NCKAP1 [SID315454362]: TNF reporter robust z-score = -0.07; outcome = inactive
NCKAP1 [SID315454362]: TNF reporter robust z-score = -0.53; outcome = inactive
NCKAP1 [SID315454362]: TNF reporter robust z-score = 0.78; outcome = inactive
CDCA3 [SID315460000]: TNF reporter robust z-score = 1.3; outcome = inactive
CDCA3 [SID315460000]: TNF reporter robust z-score = 0.27; outcome = inactive
CDCA3 [SID315460000]: TNF reporter robust z-score = 0.58; outcome = inactive
CDCA3 [SID315460000]: TNF reporter robust z-score = -0.74; outcome = inactive
ENOX2 [SID315454140]: TNF reporter robust z-score = -0.31; outcome = inactive
ENOX2 [SID315454140]: TNF reporter robust z-score = 1.22; outcome = inactive
ENOX2 [SID315454140]: TNF reporter robust z-score = 0.26; outcome = inactive
ENOX2 [SID315454140]: TNF reporter robust z-score = 0.13; outcome = inactive
